# Measurements reported in PubChem BioAssay AID1259280 (Sanger Institute, 2017)
# Purpose: 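Essential kinases and drug-combination synergies in SNU407 cells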 (primary screen)
# Cell system: human SNU407 colorectal cancer cells
# Knock-down reagent: siRNA pool against human genes
# Conditions: anchor drugs BYL719 at 1 µM, cetuximab at 5 µg/ml or trametinib at 10 nM, or DMSO vehicle alone; exposure time not given
# Measured: 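Viability relative to non-targeting control siRNA, expressed as robust z-score, plus a synergy score for each of the three anchor drugs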
# Scale: viability z-score, no drug and viability vs control, no drug: higher = more cells survive the knock-down; synergy with trametinib and synergy with BYL719 and synergy with cetuximab: higher = stronger synergy of knock-down with drug
# Rule for the call: 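a knock-down counts as essential when its robust viability z-score without drug is below -3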
# Meaning of the calls: active = essential (knock-down alone kills cells); inactive = no change without drug
# Shown is a random part of 794 reagents. In the full data, 12 (1.5%) are marked active. 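Calls cover knock-down without drug only; synergy scores stand apart, values above 0.15 being treated as synergy.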 Entries without a mark were called inactive. No viability above 1 is reported: the scale is capped. Not stated in the record: the amount of reagent, the time to read-out.
gene,"viability z-score, no drug","viability vs control, no drug (fraction of control)",synergy with trametinib,synergy with BYL719,synergy with cetuximab
NME5,0.819,0.994,-0.074,-0.0169,-0.0943
WNK4,0.901,1,-0.0145,0.0207,-0.0322
INSR,0.531,0.972,0.0216,0.0188,0.00116
PHKG1,0.385,0.961,-0.0397,-0.00772,0.00382
PRKD2,0.901,1,-0.0758,-0.0199,0.059
NIM1K,0.901,1,-0.0603,-0.0492,-0.0886
SOS2,-1.02,0.853,0.0307,-0.0218,-0.149
IDH2,0.901,1,0.123,0.0564,0.0833
MAPK11,0.721,0.986,0.0941,0.0987,0.0402
MAP2K4,0.334,0.957,-0.0946,-0.00625,-0.0137
MAGI1,0.901,1,-0.0129,-0.0802,-0.0644
PIK3R5,0.171,0.944,0.0496,0.076,0.0438
PDIK1L,-0.0756,0.925,0.0453,0.0122,0.00333
ULK1,0.0854,0.938,-0.12,0.108,0.00333
MAGI3,-0.436,0.898,-0.0667,-0.0564,-0.013
TRIB1,0.0875,0.938,-0.0224,-0.0575,0.0516
COMMD3,0.901,1,0.153,0.0783,0.0368
NEK11,-0.0483,0.927,0.0411,0.0212,-0.0134
ULK2,-0.307,0.908,0.00381,-0.0218,0.00508
CAD,0.901,1,-0.0548,-0.152,-0.0886
PRKX,0.901,1,0.0576,0.0179,0.0534
ERN2,0.901,1,0.0101,-0.0777,-0.0532
MAPK15,0.901,1,-0.0117,0.0157,0.0825
NRK,0.901,1,-0.151,0.0889,0.0188
CDKN2D,0.106,0.939,0.0641,0.1,0.0645
DGKB,-1.39,0.825,-0.00699,-0.0633,0.0257
TCF7L2,0.901,1,-0.0328,-0.103,-0.0218
NUCKS1,0.291,0.953,-0.00818,0.00795,0.00759
VRK2,-0.221,0.914,-0.0286,0.114,0.129
TSSK4,0.901,1,0.00368,0.0649,0.0494
FGFR1,0.901,1,-0.059,0.0912,0.0799
PRKACB,-1.18,0.841,0.0145,-0.0306,-0.0549
GUK1,0.747,0.988,0.0721,0.0572,0.0756
GK,-0.0678,0.926,-0.125,0.0284,-0.0303
PPP2R1A,0.692,0.984,-0.0942,-0.0657,-0.0384
BCOR,0.0769,0.937,-0.0149,0.0422,-0.00394
SMC1A,-1.2,0.839,0.0132,0.116,0.0877
TNK1,-0.757,0.873,-0.0479,0.00534,0.0295
STRADA,-0.386,0.902,0.0529,0.0174,0.00709
EPHB6,0.0513,0.935,-0.0727,-0.0381,-0.016
PSKH1,0.425,0.964,-0.0886,0.0817,0.114
GUCY2F,0.901,1,-0.0487,-0.0223,-0.0166
BUB1,0.246,0.95,-0.0811,0.0447,0.0654
ETNK2,-1.36,0.828,0.0599,0.0179,0.0208
PRKAA1,0.312,0.955,-0.0306,-0.0691,-0.121
PTK7,-1.51,0.816,-0.0263,0.104,0.0348
WNK3,0.71,0.985,-0.00945,0.0197,-0.00808
PRKD3,0.574,0.975,0.0873,0.0126,0.0938
PIP4K2C,-0.643,0.882,-0.0686,-0.0504,-0.0704
EFNA3,-1.32,0.831,0.0622,-0.0324,0.0275

7 entries from above, showing only “synergy with cetuximab”:
INSR: 0.00116
PHKG1: 0.00382
PRKD2: 0.059
NIM1K: -0.0886
SOS2: -0.149
IDH2: 0.0833
MAPK11: 0.0402
